The series concerns the target Ipf1 (endogenous, nuclear extract) (Mus musculus) (UniProt P52946). In words: EMSA. As to conditions: binding blocked by anti-Ipf1 antiserum and supershifted by affinity purified antibodies; protein in an extract. On the technique in general: Mobility shift assays separate free from complexed probe on a gel.

Protein sequences, listed by entry. Tags and fused reporters are not part of them. Chains listed by the source or under a name are the forms on record and can include a tag or linker.
UniProt P52946, other isoform, or with tags, fused parts or gaps: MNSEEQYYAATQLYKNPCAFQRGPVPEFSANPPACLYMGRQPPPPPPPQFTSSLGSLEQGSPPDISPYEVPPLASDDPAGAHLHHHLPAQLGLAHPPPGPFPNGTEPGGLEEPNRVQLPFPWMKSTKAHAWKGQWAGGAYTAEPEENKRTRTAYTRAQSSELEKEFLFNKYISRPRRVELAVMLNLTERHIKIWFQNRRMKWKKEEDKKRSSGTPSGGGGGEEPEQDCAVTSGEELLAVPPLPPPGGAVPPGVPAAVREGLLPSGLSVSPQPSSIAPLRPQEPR

We go through one sequence from patent US20020082410.

At least one result comes from cells or an extract, where the contact may be indirect.

Take “GCCCTTAATGGGCCAAACGGCA (double strand) [P1 wild-type insulin promoter element]”: the binding result is “binds”.
